# Measured values as given in the supplement of paper PMC8728848.
# Some of the results follow.
# B1: Flo1 (Saccharomyces cerevisiae), P32768 (protein)
# chain: SGATEACLPAGQRKSGMNINFYQYSLKDSSTYSNAAYMAYGYASKTKLGSVGGQTDISIDYNIPCVSSSGTFPCPQEDSYGNWGCKGMGACSNSQGIAYWSTDLFGFYTTPTNVTLEMTGYFLPPQTGSYTFKFATVDDSAILSVGGATAFNCCAQQQPPITSTNFTIDGIKPWGGSLPPNIEGTVYMYAGYYYPMKVVYSNAVSWGTLPISVTLPDGTTVSDDFEGYVYSFDDDLSQSNCTVPDPSNY
# Key:
# Assay in all cases: glycan array binding signal (z-score within array); higher = stronger binding
# Conditions in all cases: glycan notation: IUPAC condensed, linker removed
# [1] = molecular target: Gal(a1-3)Gal(b1-4)GlcNAc(b1-2)Man
# Procedure, shortened: (§1)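 Arrays were curated from the Consortium for Functional Glycomics database, 3228 in total, and kept only where the protein sequence was available. Binding is expressed as a within-array Z-score. This score was averaged across arrays of the same protein sequence at different concentrations or buffers and across linkers, and negative values can be read as non-binding.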
# [2] = molecular target: Gal(a1-3)Gal(b1-4)GlcNAc(b1-2)Man(a1-3)[Gal(a1-3)Gal(b1-4)GlcNAc(b1-2)Man(a1-6)]Man(b1-4)GlcNAc(b1-4)GlcNAc
# Procedure, shortened: as §1
# [3] = molecular target: Gal(a1-3)Gal(b1-4)GlcNAc(b1-3)GalNAc
# Procedure, shortened: as §1
# [4] = molecular target: Gal(a1-3)Gal(b1-4)GlcNAc(b1-6)GalNAc
# Procedure, shortened: as §1
# [5] = molecular target: Gal(a1-3)Gal(b1-4)[Fuc(a1-3)]GlcNAc
# Procedure, shortened: as §1
# [6] = molecular target: Gal(a1-3)Gal(b1-4)[Fuc(a1-3)]GlcNAc(b1-2)Man(a1-3)[Gal(a1-3)Gal(b1-4)[Fuc(a1-3)]GlcNAc(b1-2)Man(a1-6)]Man(b1-4)GlcNAc(b1-4)GlcNAc
# Procedure, shortened: as §1
# Gal(a1-3)GalNAc = molecular target: Gal(a1-3)GalNAc
# Procedure, shortened: as §1
# [7] = molecular target: Gal(a1-3)[Gal(a1-4)]Gal(b1-4)GlcNAc
# Procedure, shortened: as §1
# [8] = molecular target: Gal(a1-4)Gal(b1-3)GlcNAc(b1-2)Man(a1-3)[Gal(a1-4)Gal(b1-3)GlcNAc(b1-2)Man(a1-6)]Man(b1-4)GlcNAc(b1-4)GlcNAc
# Procedure, shortened: as §1
# Gal(a1-4)Gal(b1-4)Glc = molecular target: Gal(a1-4)Gal(b1-4)Glc
# Procedure, shortened: as §1
# Gal(a1-4)Gal(b1-4)GlcNAc = molecular target: Gal(a1-4)Gal(b1-4)GlcNAc
# Procedure, shortened: as §1
# [9] = molecular target: Gal(a1-4)Gal(b1-4)GlcNAc(b1-2)Man(a1-3)[Gal(a1-4)Gal(b1-4)GlcNAc(b1-2)Man(a1-6)]Man(b1-4)GlcNAc(b1-4)GlcNAc
# Procedure, shortened: as §1
# [10] = molecular target: Gal(a1-4)Gal(b1-4)GlcNAc(b1-3)Gal(b1-4)Glc
# Procedure, shortened: as §1
# Gal(a1-4)GlcNAc = molecular target: Gal(a1-4)GlcNAc
# Procedure, shortened: as §1
# Gal(a1-6)Glc = molecular target: Gal(a1-6)Glc
# Procedure, shortened: as §1
# Gal(b1-2)Gal = molecular target: Gal(b1-2)Gal
# Procedure, shortened: as §1
# Gal(b1-3)Gal = molecular target: Gal(b1-3)Gal
# Procedure, shortened: as §1
# Gal(b1-3)Gal(b1-4)GlcNAc = molecular target: Gal(b1-3)Gal(b1-4)GlcNAc
# Procedure, shortened: as §1
# [11] = molecular target: Gal(b1-3)Gal(b1-4)GlcNAc(b1-2)Man(a1-3)[Gal(b1-3)Gal(b1-4)GlcNAc(b1-2)Man(a1-6)]Man(b1-4)GlcNAc(b1-4)GlcNAc
# Procedure, shortened: as §1
# Gal(b1-3)GalNAc = molecular target: Gal(b1-3)GalNAc
# Procedure, shortened: as §1
# [12] = molecular target: Gal(b1-3)GalNAc(a1-3)[Fuc(a1-2)]Gal(b1-4)Glc
# Procedure, shortened: as §1
# [13] = molecular target: Gal(b1-3)GalNAc(a1-3)[Fuc(a1-2)]Gal(b1-4)GlcNAc
# Procedure, shortened: as §1
# Gal(b1-3)GalNAc(b1-3)Gal = molecular target: Gal(b1-3)GalNAc(b1-3)Gal
# Procedure, shortened: as §1
# [14] = molecular target: Gal(b1-3)GalNAc(b1-3)Gal(a1-4)Gal(b1-4)Glc
# Procedure, shortened: as §1
# [15] = molecular target: Gal(b1-3)GalNAc(b1-4)Gal(b1-4)Glc
# Procedure, shortened: as §1
# [16] = molecular target: Gal(b1-3)GalNAc(b1-4)[Neu5Ac(a2-3)]Gal(b1-4)Glc
# Procedure, shortened: as §1
# Gal(b1-3)GlcNAc = molecular target: Gal(b1-3)GlcNAc
# Procedure, shortened: as §1
# [17] = molecular target: Gal(b1-3)GlcNAc(a1-3)Gal(b1-4)GlcNAc
# Procedure, shortened: as §1
# [18] = molecular target: Gal(b1-3)GlcNAc(a1-6)Gal(b1-4)GlcNAc
# Procedure, shortened: as §1
# Gal(b1-3)GlcNAc(b1-2)Man = molecular target: Gal(b1-3)GlcNAc(b1-2)Man
# Procedure, shortened: as §1
# [19] = molecular target: Gal(b1-3)GlcNAc(b1-2)Man(a1-3)[Gal(b1-3)GlcNAc(b1-2)Man(a1-6)]Man(b1-4)GlcNAc(b1-4)GlcNAc
# Procedure, shortened: as §1
# [20] = molecular target: Gal(b1-3)GlcNAc(b1-2)Man(a1-3)[Gal(b1-3)GlcNAc(b1-2)Man(a1-6)]Man(b1-4)GlcNAc(b1-4)[Fuc(a1-6)]GlcNAc
# Procedure, shortened: as §1
# [21] = molecular target: Gal(b1-3)GlcNAc(b1-2)Man(a1-3)[GlcNAc(b1-4)][Gal(b1-3)GlcNAc(b1-2)Man(a1-6)]Man(b1-4)GlcNAc(b1-4)GlcNAc
# Procedure, shortened: as §1
# [22] = molecular target: Gal(b1-3)GlcNAc(b1-2)[Gal(b1-3)GlcNAc(b1-6)]Man(a1-6)[Gal(b1-3)GlcNAc(b1-2)Man(a1-3)]Man(b1-4)GlcNAc(b1-4)GlcNAc
# Procedure, shortened: as §1
# [23] = molecular target: Gal(b1-3)GlcNAc(b1-3)Gal(b1-3)GlcNAc
# Procedure, shortened: as §1
# [24] = molecular target: Gal(b1-3)GlcNAc(b1-3)Gal(b1-4)Glc
# Procedure, shortened: as §1
# [25] = molecular target: Gal(b1-3)GlcNAc(b1-3)Gal(b1-4)GlcNAc
# Procedure, shortened: as §1
# [26] = molecular target: Gal(b1-3)GlcNAc(b1-3)Gal(b1-4)GlcNAc(b1-2)Man(a1-3)[Gal(b1-3)GlcNAc(b1-3)Gal(b1-4)GlcNAc(b1-2)Man(a1-6)]Man(b1-4)GlcNAc(b1-4)GlcNAc
# Procedure, shortened: as §1
binder,measurement,setting,value
B1,glycan array binding signal (z-score),[1],-0.305
same,glycan array binding signal (z-score),[2],0.291
same,glycan array binding signal (z-score),[3],-0.543
same,glycan array binding signal (z-score),[4],-0.203
same,glycan array binding signal (z-score),[5],-0.413
same,glycan array binding signal (z-score),[6],1.85
same,glycan array binding signal (z-score),Gal(a1-3)GalNAc,-0.186
same,glycan array binding signal (z-score),[7],-0.142
same,glycan array binding signal (z-score),[8],0.81
same,glycan array binding signal (z-score),Gal(a1-4)Gal(b1-4)Glc,-0.11
same,glycan array binding signal (z-score),Gal(a1-4)Gal(b1-4)GlcNAc,-0.025
same,glycan array binding signal (z-score),[9],1.12
same,glycan array binding signal (z-score),[10],-0.596
same,glycan array binding signal (z-score),Gal(a1-4)GlcNAc,-0.553
same,glycan array binding signal (z-score),Gal(a1-6)Glc,-0.189
same,glycan array binding signal (z-score),Gal(b1-2)Gal,-0.426
same,glycan array binding signal (z-score),Gal(b1-3)Gal,-0.189
same,glycan array binding signal (z-score),Gal(b1-3)Gal(b1-4)GlcNAc,0.148
same,glycan array binding signal (z-score),[11],0.853
same,glycan array binding signal (z-score),Gal(b1-3)GalNAc,-0.238
same,glycan array binding signal (z-score),[12],-0.379
same,glycan array binding signal (z-score),[13],-0.653
same,glycan array binding signal (z-score),Gal(b1-3)GalNAc(b1-3)Gal,-0.276
same,glycan array binding signal (z-score),[14],-0.031
same,glycan array binding signal (z-score),[15],-0.62
same,glycan array binding signal (z-score),[16],-0.575
same,glycan array binding signal (z-score),Gal(b1-3)GlcNAc,-0.291
same,glycan array binding signal (z-score),[17],0.411
same,glycan array binding signal (z-score),[18],-0.648
same,glycan array binding signal (z-score),Gal(b1-3)GlcNAc(b1-2)Man,0.212
same,glycan array binding signal (z-score),[19],0.687
same,glycan array binding signal (z-score),[20],0.542
same,glycan array binding signal (z-score),[21],1.05
same,glycan array binding signal (z-score),[22],0.772
same,glycan array binding signal (z-score),[23],-0.33
same,glycan array binding signal (z-score),[24],-0.335
same,glycan array binding signal (z-score),[25],-1.03
same,glycan array binding signal (z-score),[26],-0.091

# Part of the list above in a different format:
binder	measurement	setting	value
B1	glycan array binding signal (z-score)	Gal(a1-4)GlcNAc	-0.553
same	glycan array binding signal (z-score)	[22]	0.772
